These are yes or no findings as the source states them, for the method shown. Binding seen in cells or lysates may run through a third protein. Some results given as binding are weak or reduced against the parent protein; the word gives no strength. Tags and fused reporters may be left off the sequences shown.

Chains of the proteins cited; added tags and fusions are not shown.
UniProt Q15154: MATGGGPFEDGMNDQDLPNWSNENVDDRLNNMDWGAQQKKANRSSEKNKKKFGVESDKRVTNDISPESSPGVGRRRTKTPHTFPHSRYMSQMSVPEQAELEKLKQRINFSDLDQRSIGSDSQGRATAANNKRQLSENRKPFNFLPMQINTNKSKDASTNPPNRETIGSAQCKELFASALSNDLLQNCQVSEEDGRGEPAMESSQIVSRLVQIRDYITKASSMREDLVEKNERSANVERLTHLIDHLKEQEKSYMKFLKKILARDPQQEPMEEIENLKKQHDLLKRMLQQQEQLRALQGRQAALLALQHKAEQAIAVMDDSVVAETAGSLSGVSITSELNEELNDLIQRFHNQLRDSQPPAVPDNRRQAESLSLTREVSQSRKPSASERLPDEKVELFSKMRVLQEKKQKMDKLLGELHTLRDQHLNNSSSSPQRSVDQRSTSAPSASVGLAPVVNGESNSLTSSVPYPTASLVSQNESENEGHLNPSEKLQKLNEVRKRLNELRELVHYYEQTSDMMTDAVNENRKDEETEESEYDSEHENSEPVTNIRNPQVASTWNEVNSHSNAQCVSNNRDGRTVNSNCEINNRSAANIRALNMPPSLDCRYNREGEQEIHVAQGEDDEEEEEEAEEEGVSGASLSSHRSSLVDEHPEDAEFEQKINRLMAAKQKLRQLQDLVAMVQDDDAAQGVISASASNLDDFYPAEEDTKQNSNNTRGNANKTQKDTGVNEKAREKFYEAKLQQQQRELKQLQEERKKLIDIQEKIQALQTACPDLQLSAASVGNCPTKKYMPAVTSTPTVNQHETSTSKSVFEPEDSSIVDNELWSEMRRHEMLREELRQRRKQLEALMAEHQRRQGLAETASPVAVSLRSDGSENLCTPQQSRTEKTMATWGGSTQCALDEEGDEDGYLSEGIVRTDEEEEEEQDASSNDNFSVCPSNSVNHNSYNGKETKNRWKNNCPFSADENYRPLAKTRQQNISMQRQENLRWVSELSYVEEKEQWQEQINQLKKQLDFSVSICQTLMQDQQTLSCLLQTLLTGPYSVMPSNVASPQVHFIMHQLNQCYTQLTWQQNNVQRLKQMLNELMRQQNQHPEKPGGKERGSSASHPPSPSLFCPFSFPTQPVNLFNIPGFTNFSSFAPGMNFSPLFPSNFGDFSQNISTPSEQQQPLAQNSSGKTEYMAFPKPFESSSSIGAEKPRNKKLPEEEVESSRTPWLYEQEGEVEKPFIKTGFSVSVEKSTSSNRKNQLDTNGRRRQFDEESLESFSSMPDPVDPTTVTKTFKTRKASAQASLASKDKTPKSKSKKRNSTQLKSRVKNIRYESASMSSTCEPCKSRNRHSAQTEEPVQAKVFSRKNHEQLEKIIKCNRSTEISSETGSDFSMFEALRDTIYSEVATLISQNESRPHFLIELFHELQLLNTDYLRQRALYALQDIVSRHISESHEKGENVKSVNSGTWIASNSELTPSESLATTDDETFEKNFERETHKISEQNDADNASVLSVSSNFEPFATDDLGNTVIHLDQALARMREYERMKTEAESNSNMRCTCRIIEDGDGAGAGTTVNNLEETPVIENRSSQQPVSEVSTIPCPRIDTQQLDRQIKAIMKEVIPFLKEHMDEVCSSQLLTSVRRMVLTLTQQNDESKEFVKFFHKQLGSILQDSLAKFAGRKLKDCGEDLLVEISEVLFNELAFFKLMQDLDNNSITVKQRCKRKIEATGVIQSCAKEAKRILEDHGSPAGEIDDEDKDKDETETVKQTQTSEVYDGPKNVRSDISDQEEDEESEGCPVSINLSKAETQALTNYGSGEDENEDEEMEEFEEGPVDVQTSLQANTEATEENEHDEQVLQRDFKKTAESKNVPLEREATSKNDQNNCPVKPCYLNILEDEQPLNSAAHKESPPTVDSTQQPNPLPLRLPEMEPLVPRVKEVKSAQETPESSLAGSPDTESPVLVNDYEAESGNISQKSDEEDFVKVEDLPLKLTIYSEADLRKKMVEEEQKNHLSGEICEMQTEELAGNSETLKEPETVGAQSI

Assay [1] has as its target T1, 3xFLAG-tagged full-length trichoplein (TCHP), FLAG at the N-terminus (human) (UniProt Q9BT92).
T1 sequence: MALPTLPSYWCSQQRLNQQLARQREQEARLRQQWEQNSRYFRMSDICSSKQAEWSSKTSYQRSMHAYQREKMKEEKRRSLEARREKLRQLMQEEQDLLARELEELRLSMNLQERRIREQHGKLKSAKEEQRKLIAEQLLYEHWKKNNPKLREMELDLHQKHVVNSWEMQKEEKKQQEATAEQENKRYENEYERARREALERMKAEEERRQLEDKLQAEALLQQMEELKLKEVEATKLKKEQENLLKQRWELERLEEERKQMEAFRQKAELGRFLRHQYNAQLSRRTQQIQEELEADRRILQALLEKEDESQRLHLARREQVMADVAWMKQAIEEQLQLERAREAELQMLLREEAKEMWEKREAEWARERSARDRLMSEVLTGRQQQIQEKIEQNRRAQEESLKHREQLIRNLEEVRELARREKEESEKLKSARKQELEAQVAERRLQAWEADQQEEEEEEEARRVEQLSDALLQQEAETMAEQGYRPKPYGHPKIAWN
Nature of the assay: co-IP; HEK293 transfected for 48 h; total lysates immunoprecipitated with anti-FLAG antibodies, blots probed with anti-PCM1, anti-FLAG and anti-ACTIN.

Assay [2] has as its target T2, TCHP-FLAG, FLAG at the C-terminus (human) (UniProt Q9BT92).
T2 sequence: T1 sequence
The description is as above.

For the substance “PCM1, centriolar satellite protein, endogenous in HEK293 cells (from UniProt Q15154 1-2024)”, the binding entry in assay [1] and in assay [2] was “binds” each time.

(Values after PMC7332983.)
